Results reported in PubChem BioAssay AID2810 (NMMLSC, 2010).
This is one part of the list. Further columns of the screen follow, without active or inactive calls.

Assay: modulators of CD8 T cell-vesicle binding, confirmation, cherry-picked primary hits, two concentrations (AID 2810);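 note: lower values mean blocking of vesicle binding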;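 for percent response (vesicle binding): ratio of mean FL2 vesicle stain of CD8+ cells to that row's control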
Settings: 2C CD8+ T cell-vesicle binding, flow cytometry; for double positive events: CD8+/vesicle+ events
[1] = at 15.4 µM, stronger effect = lower value

| Structure (SMILES) | double positive events (at 7.7 µM) [%] | double positive events [1] [%] | percent response (vesicle binding) (at 7.7 µM) [%] |
| --- | --- | --- | --- |
| CCCCn1c(N)c(N(CCOC)C(=O)c2ccc(-c3ccc([N+](=O)[O-])cc3)o2)c(=O)[nH]c1=O | 16.2 | 26.2 | 199 |
| CNCc1cn2cc(Cl)ccc2n1 | 19.8 | 2.2 | 316 |
| Cc1ccc(OCCN2C(=O)c3ccccc3C2=O)c(C)c1 | 10.2 | 14.9 | 227 |
| Cc1ccc(S(=O)(=O)Nc2ccccc2C=Nc2cccc(C)c2C)cc1 | 28.6 | 19 | 208 |
| COc1ccc(NC(=O)[C@H](C)NC(=O)C2CCN(S(=O)(=O)c3ccc(C)cc3)CC2)cc1 | 10.7 | 15.7 | 166 |
| O=C(COc1ccc(F)cc1)Nc1nnc(C2CCCCC2)s1 | 24.6 | 10.9 | 117 |
| COc1cccc(-c2nc(NCC3CCCO3)c3ccccc3n2)c1O (stereo not given) | 10.9 | 22.4 | 191 |
| CCOC(=O)c1ccc(-n2c(C)nc3c(cnn3-c3ccccc3Cl)c2=O)cc1 | 13 | 6.9 | 135 |
| CC1CCCC(C)N1CCNC(=O)CCc1nnc2n(Cc3ccccc3)c(=O)c3ccccc3n12 (stereo not given) | 29.4 | 16.9 | 384 |
| COc1ccc(C(=O)N2CCN(c3ccc(C)cc3C)CC2)cc1OC | 16.3 | 22.1 | 97.4 |
| COc1ccc(CNC(=O)c2ccc3oc(C(C)C)nc3c2)cc1 | 18.5 | 27.8 | 177 |
| CC(=O)Nc1cccc(NC(=O)COC(=O)CO/N=C(\C)c2ccc3c(c2)OCO3)c1 | 33.8 | 9.2 | 322 |
| NS(=O)(=O)c1ccc(CCNC(=O)C2CCN(S(=O)(=O)c3cccc4cccnc34)CC2)cc1 | 14.2 | 10.7 | 483 |
| COc1ccc(C)cc1NC(=O)c1cc(-c2ccccc2)nc2c1cnn2C(C)C | 9.6 | 18.3 | 150 |
| CC(N)c1ccc(Cl)cc1Cl (stereo not given) | 39.3 | 8.9 | 308 |
| CC(C)=CCC[C@](C)(O)C1CC[C@]2(C)C1[C@H](O)CC1[C@@]3(C)CC[C@H](O[C@@H]4O[C@H](CO)[C@@H](O)[C@H](O)[C@H]4O[C@@H]4O[C@H](CO)[C@@H](O)[C@H](O)[C@H]4O)C(C)(C)C3CC[C@]12C (stereo not given in full) | 10.9 | 31.7 | 402 |
| COc1ccccc1C(=O)NC(=S)Nc1ccc(S(=O)(=O)N2CCN(C)CC2)cc1 | 18.4 | 19 | 226 |
| COc1cc(/C=C/C(=O)O)cc(S(=O)(=O)N(C)CCO)c1OC | 7.4 | 35.3 | 240 |
| Cc1ccc(CNC(=O)C2CCN(S(=O)(=O)c3cnc[nH]3)CC2)cc1 | 32.6 | 13 | 288 |
| COc1ccc2c(c1)c(=O)cc(-c1ccccc1)n2C | 35.8 | 27.5 | 507 |
| Cc1ccc(S(=O)(=O)/N=C2/NC(=O)/C(=C/c3ccccc3)S2)cc1 | 9.1 | 10.8 | 185 |
| COc1ccc(Cl)cc1NC(=O)CN(C)C(=O)c1ccc(-n2nc(C)cc2C)cc1 | 36.2 | 27.1 | 440 |
| CN(C(=O)c1ccc(=O)n(Cc2ccc(Cl)cc2)c1)c1ccccc1 | 15.1 | 14.2 | 372 |
| O=C(CN1CCN(CC(=O)Nc2ccccc2Cl)CC1)NCC1(N2CCCCC2)CCCCC1 | 7.4 | 25.3 | 292 |
| Cc1cccc(NC(=O)CNC(=O)C(NC(=O)Cc2ccccc2)C(C)C)c1C (stereo not given) | 16.2 | 24.4 | 360 |

| Structure (SMILES) | double positive events (at 7.7 µM) [%] | double positive events [1] [%] | percent response (vesicle binding) (at 7.7 µM) [%] |
| --- | --- | --- | --- |
| Clc1cccc(N/N=C(\Cc2nc3ccccc3[nH]2)c2ccccc2)c1 | 22.9 | 10.9 | 150 |
| O=C(Nc1cc(Cl)c(O)c(Cl)c1)C1CCCO1 (stereo not given) | 12.3 | 24.8 | 208 |
| O=C1c2ccccc2NC(c2ccc(-c3ccc(F)cc3)o2)N1O (stereo not given) | 19.5 | 23.2 | 335 |
| CCOC(=O)c1cc(CC)sc1NC(=O)c1cc([N+](=O)[O-])ccc1N1CCOCC1 | 26.3 | 12.2 | 178 |
| O=[N+]([O-])c1cc(C(F)(F)F)ccc1NN=C1CCCC1 | 23.3 | 18.7 | 260 |
| O=C(N/N=C/c1ccc(O)c(O)c1)c1ccc(-n2cnnn2)cc1 | 16.6 | 30.6 | 112 |
| Cc1[nH]c2ccc(F)cc2c1CCNC(=O)C1CCCCC1C(=O)OCC(F)(F)F (stereo not given) | 15.2 | 17.1 | 462 |
| CCOC(=O)C1(Cc2cccc(Cl)c2)CCCN(C(=O)c2ccc(COC)s2)C1 (stereo not given) | 18.4 | 29.2 | 232 |
| C/C(=N\NC(=O)COc1ccc(C(C)(C)C)cc1)c1ccc(OC(F)F)cc1 | 14.7 | 5.6 | 298 |
| N#Cc1cccc(S(=O)(=O)NNC(=O)C23CC4CC(CC(C4)C2)C3)c1 | 8.4 | 16.5 | 300 |
| O=C(NC1c2ccccc2-c2ccccc21)N1CCOCC1 | 12.7 | 15.2 | 367 |
| CCOC(=O)C(NC(=O)Nc1ccc(F)cc1F)(Oc1ccccc1)C(F)(F)F (stereo not given) | 19.3 | 15.2 | 187 |
| N#Cc1nc(Cc2cccc3ccccc23)oc1NCCN1CCOCC1 | 33.7 | 8.8 | 369 |
| CSC1=NCCN1C(=O)Cc1ccc(F)cc1 | 11.4 | 27 | 161 |
| Cc1c(C)c2c(OCC(=O)NCC(O)c3ccccc3)cc3c(c2oc1=O)CCC(C)(C)O3 (stereo not given) | 18.8 | 2.1 | 284 |
| O=C(Nc1nccs1)c1cc(-c2ccccc2)nc2ccccc12 | 12.3 | 26.9 | 91.5 |
| O=C(COC(=O)CCC(=O)c1ccc(F)cc1)NC1CCCCC1 | 35.4 | 23.8 | 250 |
| CCOC(=O)Nc1sc(C)c(C)c1C(N)=O | 25.8 | 3.2 | 322 |
| N=C1/C(=C/c2cccn2-c2ccc([N+](=O)[O-])cc2)C(=O)N=C2SC=CN12 | 30.1 | 15 | 63.6 |
| COc1ccc2[nH]c3c(c2c1)CCn1c-3nc2ccccc2c1=O | 17.9 | 19.2 | 115 |
| Cc1cc(C)n(C(=O)c2sc3cc(F)ccc3c2Cl)n1 | 26.6 | 13 | 327 |
| O=C(CN1CCCCC1)N1CCCc2c1c(=O)oc1ccc(OCc3ccccc3)cc21 | 14.9 | 5.5 | 123 |
| COc1ccc2c(CC(=O)OCC(=O)Nc3ccc(C)cc3)coc2c1 | 42.6 | 25.4 | 198 |
| Cc1cc2c(cc1S(=O)(=O)NCCc1ccccc1)NC(=O)CO2 | 20.7 | 23.9 | 187 |
| CC(Sc1ncnc2sccc12)C(=O)Nc1ccc(S(N)(=O)=O)cc1 (stereo not given) | 13.6 | 18.4 | 119 |

Structures shown so far containing an aryl methoxy group:

| Structure (SMILES) | double positive events (at 7.7 µM) [%] | double positive events [1] [%] | percent response (vesicle binding) (at 7.7 µM) [%] |
| --- | --- | --- | --- |
| COc1ccc(NC(=O)[C@H](C)NC(=O)C2CCN(S(=O)(=O)c3ccc(C)cc3)CC2)cc1 | 10.7 | 15.7 | 166 |
| COc1cccc(-c2nc(NCC3CCCO3)c3ccccc3n2)c1O (stereo not given) | 10.9 | 22.4 | 191 |
| COc1ccc(C(=O)N2CCN(c3ccc(C)cc3C)CC2)cc1OC | 16.3 | 22.1 | 97.4 |
| COc1ccc(CNC(=O)c2ccc3oc(C(C)C)nc3c2)cc1 | 18.5 | 27.8 | 177 |
| COc1ccc(C)cc1NC(=O)c1cc(-c2ccccc2)nc2c1cnn2C(C)C | 9.6 | 18.3 | 150 |
| COc1ccccc1C(=O)NC(=S)Nc1ccc(S(=O)(=O)N2CCN(C)CC2)cc1 | 18.4 | 19 | 226 |
| COc1cc(/C=C/C(=O)O)cc(S(=O)(=O)N(C)CCO)c1OC | 7.4 | 35.3 | 240 |
| COc1ccc2c(c1)c(=O)cc(-c1ccccc1)n2C | 35.8 | 27.5 | 507 |
| COc1ccc(Cl)cc1NC(=O)CN(C)C(=O)c1ccc(-n2nc(C)cc2C)cc1 | 36.2 | 27.1 | 440 |
| COc1ccc2[nH]c3c(c2c1)CCn1c-3nc2ccccc2c1=O | 17.9 | 19.2 | 115 |
| COc1ccc2c(CC(=O)OCC(=O)Nc3ccc(C)cc3)coc2c1 | 42.6 | 25.4 | 198 |
